PubChem BioAssay AID1159584 | Peter MacCallum Cancer Centre – 2016

- Screen: 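Genes that CDH1-null MCF10A cells selectively depend on to survive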 (primary screen)
- Cell system: human MCF10A breast epithelial cells, parental and CDH1-null
- Reagent: siRNA against human genes
- Read-out: 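Cell viability by CellTiter-Glo ATP luminescence, each line scaled to the mean of mock wells across plates, then CDH1-null over parental ratio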
- Reading the numbers: CDH1-null / parental viability ratio: higher = CDH1-null cells survive relatively better than parental; CDH1-null viability vs mock: higher = more viable CDH1-null cells; parental viability vs mock: higher = more viable parental cells
The deposit covers about 18,000 reagents; below is a part drawn at random. Reagent sequences are not shown. Not given: the amount of reagent, the time to read-out.

| gene symbol | PubChem SID | CDH1-null / parental viability ratio | CDH1-null viability vs mock (fraction of mock) | parental viability vs mock (fraction of mock) |
| --- | --- | --- | --- | --- |
| CCL1 (C-C motif chemokine ligand 1) | SID134312762 | 1.1 | 0.33 | 0.3 |
| DCLK2 (doublecortin like kinase 2) | SID152154613 | 0.99 | 0.71 | 0.72 |
| SPAG16 (sperm associated antigen 16) | SID135623235 | 0.92 | 0.92 | 1 |
| CEACAM19 (CEA cell adhesion molecule 19) | SID134318006 | 1.02 | 0.98 | 0.96 |
| CYFIP2 (cytoplasmic FMR1 interacting protein 2) | SID152155224 | 1.12 | 1.03 | 0.92 |
| IER5L (immediate early response 5 like) | SID135625038 | 0.93 | 0.82 | 0.88 |
| SSUH2 (ssu-2 homolog) | SID134324586 | 0.91 | 0.86 | 0.94 |
| KIF23 (kinesin family member 23) | SID134310682 | 0.92 | 0.77 | 0.84 |
| DAB1 (DAB adaptor protein 1) | SID134313784 | 1.17 | 0.98 | 0.84 |
| PTPRZ1 (protein tyrosine phosphatase receptor type Z1) | SID152153917 | 1.04 | 0.8 | 0.77 |
| ART5 (ADP-ribosyltransferase 5) | SID152153387 | 1 | 0.52 | 0.52 |
| SIGLEC1 (sialic acid binding Ig like lectin 1) | SID152149771 | 0.91 | 0.62 | 0.68 |
| TEX13B (testis expressed 13B) | SID135622542 | 1.21 | 0.92 | 0.76 |
| OR2V2 (olfactory receptor family 2 subfamily V member 2) | SID134329447 | 1.03 | 0.7 | 0.68 |
| TMEM187 (transmembrane protein 187) | SID152149626 | 1.39 | 0.53 | 0.38 |
| MIOS (meiosis regulator for oocyte development) | SID152156318 | 0.87 | 0.52 | 0.6 |
| OR5B12 (olfactory receptor family 5 subfamily B member 12) | SID135624857 | 0.89 | 0.62 | 0.7 |
| FNDC3A (fibronectin type III domain containing 3A) | SID152147733 | 0.99 | 0.91 | 0.92 |
| LAS1L (LAS1 like ribosome biogenesis factor) | SID152155637 | 0.93 | 0.65 | 0.7 |
| ALG14 (ALG14 UDP-N-acetylglucosaminyltransferase subunit) | SID134320972 | 1.04 | 1.04 | 1 |
| SRARP (steroid receptor associated and regulated protein) | SID134322230 | 0.91 | 0.78 | 0.86 |
| ARPC3 (actin related protein 2/3 complex subunit 3) | SID134310853 | 0.81 | 0.87 | 1.08 |
| MCEE (methylmalonyl-CoA epimerase) | SID134320671 | 0.96 | 0.92 | 0.96 |

In a second layout: 7 of the entries above
gene symbol | PubChem SID | CDH1-null / parental viability ratio | CDH1-null viability vs mock (fraction of mock) | parental viability vs mock (fraction of mock)
TMEM187 (transmembrane protein 187) | SID152149626 | 1.39 | 0.53 | 0.38
MIOS (meiosis regulator for oocyte development) | SID152156318 | 0.87 | 0.52 | 0.6
OR5B12 (olfactory receptor family 5 subfamily B member 12) | SID135624857 | 0.89 | 0.62 | 0.7
FNDC3A (fibronectin type III domain containing 3A) | SID152147733 | 0.99 | 0.91 | 0.92
LAS1L (LAS1 like ribosome biogenesis factor) | SID152155637 | 0.93 | 0.65 | 0.7
ALG14 (ALG14 UDP-N-acetylglucosaminyltransferase subunit) | SID134320972 | 1.04 | 1.04 | 1
SRARP (steroid receptor associated and regulated protein) | SID134322230 | 0.91 | 0.78 | 0.86

The results go on:
| gene symbol | PubChem SID | CDH1-null / parental viability ratio | CDH1-null viability vs mock (fraction of mock) | parental viability vs mock (fraction of mock) |
| --- | --- | --- | --- | --- |
| PTMA (prothymosin alpha) | SID134310805 | 0.84 | 0.32 | 0.38 |
| CISD2 (CDGSH iron sulfur domain 2) | SID152155286 | 0.93 | 1 | 1.07 |
| ARHGEF5 (Rho guanine nucleotide exchange factor 5) | SID135620933 | 0.76 | 0.52 | 0.68 |
| COIL (coilin) | SID152153160 | 0.81 | 0.75 | 0.93 |
| DSCAML1 (DS cell adhesion molecule like 1) | SID134312820 | 0.97 | 0.3 | 0.31 |
| COA7 (cytochrome c oxidase assembly factor 7) | SID134318417 | 0.79 | 0.75 | 0.95 |
| CD99L2 (CD99 molecule like 2) | SID152151805 | 1 | 0.84 | 0.84 |
| CNTN4 (contactin 4) | SID134323006 | 0.9 | 0.52 | 0.58 |
| ZCCHC17 (zinc finger CCHC-type containing 17) | SID134320843 | 1.14 | 0.8 | 0.7 |
| ALDH7A1 (aldehyde dehydrogenase 7 family member A1) | SID135621628 | 0.97 | 0.89 | 0.92 |
| KNCN (kinocilin) | SID152150589 | 0.93 | 0.56 | 0.6 |
| DEFB118 (defensin beta 118) | SID135622910 | 0.8 | 0.78 | 0.98 |
| PAWR (pro-apoptotic WT1 regulator) | SID135620829 | 0.99 | 0.85 | 0.86 |
| MCCD1 (mitochondrial coiled-coil domain 1) | SID152152019 | 1.15 | 1 | 0.87 |
| LYRM7 (LYR motif containing 7) | SID152152011 | 1.03 | 0.74 | 0.72 |
| DNAAF19 (dynein axonemal assembly factor 19) | SID134330007 | 0.93 | 0.8 | 0.86 |
| ASAH2B (N-acylsphingosine amidohydrolase 2B) | SID135625537 | 0.82 | 0.56 | 0.68 |
| GPR17 (G protein-coupled receptor 17) | SID134310993 | 0.95 | 0.61 | 0.64 |
| ISLR2 (immunoglobulin superfamily containing leucine rich repeat 2) | SID134325352 | 1.01 | 0.85 | 0.84 |
| AKAP19 (A-kinase anchoring protein 19) | SID135622827 | 0.79 | 0.41 | 0.52 |
| HSF5 (heat shock transcription factor 5) | SID152155245 | 1 | 0.7 | 0.7 |
| LRSAM1 (leucine rich repeat and sterile alpha motif containing 1) | SID152155053 | 1.11 | 1.04 | 0.94 |
| LEPR (leptin receptor) | SID135621490 | 0.92 | 0.8 | 0.87 |
